According to article PMC4746922:
No constants are given. Whether binding was seen depends on the method and setting. Binding seen in cells or lysates may run through a third protein. Some binding calls cover weakened binding; strength is not graded here. For some assays here: Where a sequence is shown, tags or fusion partners need not be part of it.

Key:
[1] = target: T1, flag-tagged Wt Rad9 (human) (UniProt Q99638); experiment: co-IP; lysates of HEK293 c-18 cells stably overexpressing flag-tagged Wt or S328D Rad9, with or without HU; immunoprecipitated with flag antibody; blotted for Hus1 and WRN
T1 sequence: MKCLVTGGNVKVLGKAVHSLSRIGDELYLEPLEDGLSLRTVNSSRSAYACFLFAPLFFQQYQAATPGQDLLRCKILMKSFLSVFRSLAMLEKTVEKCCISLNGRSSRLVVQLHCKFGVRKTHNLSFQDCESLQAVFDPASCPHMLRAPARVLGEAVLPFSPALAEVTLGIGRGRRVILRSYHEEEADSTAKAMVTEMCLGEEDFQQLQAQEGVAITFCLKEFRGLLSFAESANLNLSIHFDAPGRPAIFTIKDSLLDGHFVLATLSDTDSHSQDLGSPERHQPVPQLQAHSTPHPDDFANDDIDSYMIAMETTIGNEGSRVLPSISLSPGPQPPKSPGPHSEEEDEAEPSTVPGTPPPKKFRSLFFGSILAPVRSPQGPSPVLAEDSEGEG

[2] = target: T2, Rad9 (human (endogenous in HEK293)) (UniProt Q99638); experiment: co-IP; lysates (1.5 mg; 1 % Triton X-100, 0.5 % Na-deoxycholate, 150 mM NaCl, Tris/HCl pH 8.0; sonicated, benzonase) of HEK293 cells stably expressing Wt or Mut (S457A) TLK1B, untreated or treated with HU; immunoprecipitated with anti-Rad9 antibody overnight at 4 °C, protein A/G Sepharose; blotted for Hus1 and WRN
T2 sequence: T1 sequence

B1: Hus1 (protein, UniProt O60921 1-280)
chain: MKFRAKIVDGACLNHFTRISNMIAKLAKTCTLRISPDKLNFILCDKLANGGVSMWCELEQENFFNEFQMEGVSAENNEIYLELTSENLSRALKTAQNARALKIKLTNKHFPCLTVSVELLSMSSSSRIVTHDIPIKVIPRKLWKDLQEPVVPDPDVSIYLPVLKTMKSVVEKMKNISNHLVIEANLDGELNLKIETELVCVTTHFKDLGNPPLASESTHEDRNVEHMAEVHIDIRKLLQFLAGQQVNPTKALCNIVNNKMVHFDLLHEDVSLQYFIPALS
Which results are given for B1?
binding [1]: binds; binding [2]: binds
